Among the data in PubChem BioAssay AID2685 (National Center for Advancing Translational Sciences (NCATS), 2010) are cell number change and AC50 values, retold here.

A word on the AC50: it is the concentration at which the activity in the assay is half-maximal. The low end stands for greater potency, the high end for weaker potency.

The nature of the experiment: qHTS Assay for Lipid Storage Modulators in Drosophila S3 Cells.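 On cell number change: cells counted by Cell Tracker Red CMTPX staining in the red channel.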 To be noted: BODIPY lipid droplet fluorescence, 18-24 h; for cell number change: measured here: cell count max response, cells fed with added oleic acid. The procedure, abridged: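 Drosophila S3 cells loaded with oleic acid (400 uM, as added) and compounds at several concentrations; lipid droplets imaged by 488-nm laser-scanning cytometry, 500–530 nm intensity and object ratio to cell channel. Percent activity normalized to 20 uM Triacsin C.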
(In general: Quantitative high-throughput screening tests each substance at several concentrations.)

Setting [1] is: measured here: lipid fluorescence (Fed channel) AC50, cells fed with added oleic acid.
[2] abbreviates: measured here: cell number channel AC50, cells fed with added oleic acid.

The other results are listed elsewhere or left out. The main result of the screen is listed elsewhere. These columns were measured beside it and carry no call. The list favours compounds with an active or inconclusive main result. Potencies come from curve fits of mixed quality, noted in brackets.

Take `COc1ccccc1CNC(=O)COC(=O)c1ccc(Cl)c(N)c1`: the cell number change is -2.44%. In addition, under setting [1], the AC50 was 6.51 µM [rising, single point]. For `O=c1c(C(c2ccc(Cl)cc2)c2c(O)nc3n(c2=O)CCS3)c(O)nc2n1CCS2`, the cell number change came to 23.4%. As for `COc1ccc(CCNC(=O)C2CCCN(S(=O)(=O)c3ccc(F)cc3)C2)cc1OC` (stereo unspecified), the AC50 under setting [1] was 0.092 µM [rising, full curve, poor fit]. In the case of `COc1ccc(CCNC(=O)c2ccc3c(=O)n(Cc4ccco4)c(=S)[nH]c3c2)cc1OC`, the cell number change was determined as 1.04%. Also, the half-maximal activity concentration (AC50) under setting [2] is 6.51 µM [rising, single point]. Under setting [1], the AC50 is 4.61 µM [rising, partial curve]. With `CC(C)(C)C(=O)N1CCN(S(=O)(=O)c2ccc3c(c2)OCCCO3)CC1`, the cell number change came out at 13.5%. The AC50 under setting [1] was 18.4 µM [rising, single point]. Turning to `Fc1ccc(-n2c(Cc3ccccc3)nnc2SCc2nc(-c3ccc(Cl)cc3)no2)cc1`, the cell number change was 139%. In addition, the AC50 under setting [2] was 9.2 µM [rising, partial curve]. In addition, under setting [1], the AC50 was 6.51 µM [rising, partial curve]. Regarding `CCCCCc1c(O)c2ccccc2[nH]c1=O`, the cell number change was -203%. Also, under setting [2], the AC50 is 29.1 µM [falling, partial curve]. Also, the half-maximal activity concentration (AC50) under setting [1] was 23.1 µM [falling, partial curve]. As to `O=C(/C=C/c1ccc(OC2CSC2)cc1)c1ccc(Cl)cc1`, the cell number change worked out at 8.26%. In addition, the AC50 under setting [1] was 9.2 µM [rising, single point].

In the case of `CC(OC(=O)c1c2c(nc3ccccc13)/C(=C\c1ccc3c(c1)OCO3)CCC2)C(=O)Nc1ccc(S(N)(=O)=O)cc1` (stereo unspecified), the cell number change is 5.63%. On the same count and under the same terms, with `CS(=O)(=O)N1CCN(CC(=O)NC2CCCC2)CC1` the figure was -10.8%.

As for `CCCc1nc(SC2CCCC2)c2c(=O)n(C)c(=O)n(C)c2n1`, under setting [1], the concentration at half-maximal activity (AC50) was 0.0731 µM [rising, full curve, poor fit]. With `COc1ccc(-c2ccc3ccccc3n2)cc1OC`, the cell number change is -3.38%. Further, the half-maximal activity concentration (AC50) under setting [1] was 6.51 µM [rising, partial curve, poor fit]. On to `COc1ccc(N2C(=O)CC(N(Cc3ccc(S(N)(=O)=O)cc3)C(C)=O)C2=O)cc1` (stereo unspecified), for which the cell number change is -13.7%. Moreover, the AC50 under setting [2] was 0.146 µM [falling, full curve]. With `CCC(C)(C(=O)NC1CCCCC1)N(C(=O)C1CCC(=O)N1)c1ccccc1` (stereo unspecified), the cell number change was -68.6%. Further, the AC50 under setting [2] was 29.1 µM [falling, partial curve]. Under setting [1], the AC50 is 16.4 µM [falling, partial curve]. As to `O=C(c1cccc(N2CCCC2=O)c1)N1CCN(c2cccc(Cl)c2)CC1`, the cell number change amounted to 3.61%. Under setting [1], the AC50 was 25.9 µM [rising, single point]. In the case of `CCCCc1nn(-c2cc(Cl)ccc2OC)c2c1C(=O)CC(C)(C)C2`, the cell number change is 52.2%. In addition, the half-maximal activity concentration (AC50) under setting [2] is 29.1 µM [rising, single point].
